# This is one part of the list.
# B1: GS13971A-bth-447-22-447 (Bacteroides thetaiotaomicron) (protein)
# chain: EDVDNERSKGMFSASQSGFSTIEVYDLGPLNKIDLSIAKAGLEDTGGTVTFSVEQSLLDSLNNADGTSYQLLPPECYTIENATYSVSPGGDRRVTGGSLVYDPHKIYNLCGFDELKYVLPLRVSSTGTPMNSDRTATLYGFIVKEAIVRLASTGGDFVVEGGTTTSPMNLDTEISFENEWDLTTSFATKGADYVDNYNSANSTYYIPLPSDFYTLPDVTIAKGKTTGGSAISLLGETLPPGNYLLPVSLGGLSGQGDASINIDKETVANYFVIKQGGPINRDHWTVTANTEEKTGEVSAAYPHNGQTISLIDGEINTFWHSKWQGGEVAPPYEIILDMGKENSVSQLGLIARQNALTSMNLEIYAGDDGETWNLIGKYFFDGSIKTEQMVPVKACDARWIRIYIPTLGSGSSVGHLAEIYVYGTDK
# How the values were obtained:
# Test in all cases: glycan array binding signal (z-score within array); higher = stronger binding
# Settings in all cases: glycan notation: IUPAC condensed, linker removed
# GalNAc(b1-3)Gal = biological target: GalNAc(b1-3)Gal
# Procedure, shortened: (§1)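 From the Consortium for Functional Glycomics database, 3228 arrays were curated, keeping only those whose protein sequence was available. Binding is given as a within-array Z-score averaged across arrays sharing a protein sequence and across linkers. Negative Z-scores can be read as non-binding.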
# [1] = biological target: GalNAc(b1-3)Gal(a1-4)Gal(b1-4)GlcNAc
# Procedure, shortened: as §1
# [2] = biological target: GalNAc(b1-3)Gal(a1-4)Gal(b1-4)GlcNAc(b1-3)Gal(b1-4)Glc
# Procedure, shortened: as §1
# [3] = biological target: GalNAc(b1-3)Gal(a1-6)Gal(b1-4)Glc
# Procedure, shortened: as §1
# GalNAc(b1-3)GalNAc = biological target: GalNAc(b1-3)GalNAc
# Procedure, shortened: as §1
# GalNAc(b1-3)GlcNAc = biological target: GalNAc(b1-3)GlcNAc
# Procedure, shortened: as §1
# GalNAc(b1-4)Gal(b1-4)Glc = biological target: GalNAc(b1-4)Gal(b1-4)Glc
# Procedure, shortened: as §1
# GalNAc(b1-4)GlcNAc = biological target: GalNAc(b1-4)GlcNAc
# Procedure, shortened: as §1
# [4] = biological target: GalNAc(b1-4)GlcNAc(b1-2)Man
# Procedure, shortened: as §1
# [5] = biological target: GalNAc(b1-4)GlcNAc(b1-2)Man(a1-3)[GalNAc(b1-4)GlcNAc(b1-2)Man(a1-6)]Man(b1-4)GlcNAc(b1-4)GlcNAc
# Procedure, shortened: as §1
# [6] = biological target: GalNAc(b1-4)GlcNAc(b1-3)GalNAc(b1-4)GlcNAc
# Procedure, shortened: as §1
# GalNAc(b1-4)GlcNAc6S = biological target: GalNAc(b1-4)GlcNAc6S
# Procedure, shortened: as §1
# GalNAc(b1-6)GalNAc = biological target: GalNAc(b1-6)GalNAc
# Procedure, shortened: as §1
# GalNAc3S(b1-4)GlcNAc = biological target: GalNAc3S(b1-4)GlcNAc
# Procedure, shortened: as §1
# GalNAc3S(b1-4)GlcNAc3S = biological target: GalNAc3S(b1-4)GlcNAc3S
# Procedure, shortened: as §1
# [7] = biological target: GalNAc3S(b1-4)[Fuc(a1-3)]GlcNAc
# Procedure, shortened: as §1
# GalNAc4S6S(b1-4)GlcNAc = biological target: GalNAc4S6S(b1-4)GlcNAc
# Procedure, shortened: as §1
# GalNAc6S(b1-4)GlcNAc = biological target: GalNAc6S(b1-4)GlcNAc
# Procedure, shortened: as §1
# Glc(a1-4)Glc = biological target: Glc(a1-4)Glc
# Procedure, shortened: as §1
# [8] = biological target: Glc(a1-4)Glc(a1-4)Glc(a1-4)Glc
# Procedure, shortened: as §1
# Glc(a1-6)Glc(a1-6)Glc = biological target: Glc(a1-6)Glc(a1-6)Glc
# Procedure, shortened: as §1
# [9] = biological target: Glc(a1-6)Glc(a1-6)Glc(a1-6)Glc
# Procedure, shortened: as §1
# Glc(b1-4)Glc = biological target: Glc(b1-4)Glc
# Procedure, shortened: as §1
# Glc(b1-6)Glc = biological target: Glc(b1-6)Glc
# Procedure, shortened: as §1
# GlcA(b1-3)Gal = biological target: GlcA(b1-3)Gal
# Procedure, shortened: as §1
# GlcA(b1-3)GlcNAc = biological target: GlcA(b1-3)GlcNAc
# Procedure, shortened: as §1
# GlcA(b1-6)Gal = biological target: GlcA(b1-6)Gal
# Procedure, shortened: as §1
# [10] = biological target: GlcA3S(b1-3)Gal(b1-4)GlcNAc(b1-2)Man
# Procedure, shortened: as §1
# [11] = biological target: GlcA3S(b1-3)Gal(b1-4)GlcNAc(b1-3)Gal(b1-4)Glc
# Procedure, shortened: as §1
# [12] = biological target: GlcNAc(a1-3)Gal(b1-4)GlcNAc
# Procedure, shortened: as §1
# [13] = biological target: GlcNAc(a1-4)Gal(b1-3)GlcNAc
# Procedure, shortened: as §1
# [14] = biological target: GlcNAc(a1-4)Gal(b1-4)GalNAc
# Procedure, shortened: as §1
# [15] = biological target: GlcNAc(a1-4)Gal(b1-4)GlcNAc
# Procedure, shortened: as §1
# [16] = biological target: GlcNAc(a1-4)Gal(b1-4)GlcNAc(b1-3)Gal(b1-4)Glc
# Procedure, shortened: as §1
# [17] = biological target: GlcNAc(a1-4)Gal(b1-4)GlcNAc(b1-3)Gal(b1-4)GlcNAc
# Procedure, shortened: as §1
# [18] = biological target: GlcNAc(a1-4)Gal(b1-4)GlcNAc(b1-3)Gal(b1-4)GlcNAc(b1-3)Gal(b1-4)GlcNAc
# Procedure, shortened: as §1
# [19] = biological target: GlcNAc(a1-4)Gal(b1-4)GlcNAc(b1-3)Gal(b1-4)[Fuc(a1-3)]GlcNAc(b1-3)Gal(b1-4)[Fuc(a1-3)]GlcNAc
# Procedure, shortened: as §1
# [20] = biological target: GlcNAc(a1-6)Gal(b1-4)GlcNAc
# Procedure, shortened: as §1
binder,measurement,setting,value
B1,glycan array binding signal (z-score),GalNAc(b1-3)Gal,-0.007
same,glycan array binding signal (z-score),[1],0.916
same,glycan array binding signal (z-score),[2],-0.815
same,glycan array binding signal (z-score),[3],-0.007
same,glycan array binding signal (z-score),GalNAc(b1-3)GalNAc,-0.635
same,glycan array binding signal (z-score),GalNAc(b1-3)GlcNAc,0.465
same,glycan array binding signal (z-score),GalNAc(b1-4)Gal(b1-4)Glc,0.451
same,glycan array binding signal (z-score),GalNAc(b1-4)GlcNAc,2.92
same,glycan array binding signal (z-score),[4],-0.221
same,glycan array binding signal (z-score),[5],5.75
same,glycan array binding signal (z-score),[6],-0.446
same,glycan array binding signal (z-score),GalNAc(b1-4)GlcNAc6S,0.547
same,glycan array binding signal (z-score),GalNAc(b1-6)GalNAc,0.689
same,glycan array binding signal (z-score),GalNAc3S(b1-4)GlcNAc,0.07
same,glycan array binding signal (z-score),GalNAc3S(b1-4)GlcNAc3S,-0.349
same,glycan array binding signal (z-score),[7],0.092
same,glycan array binding signal (z-score),GalNAc4S6S(b1-4)GlcNAc,-0.217
same,glycan array binding signal (z-score),GalNAc6S(b1-4)GlcNAc,-1.49
same,glycan array binding signal (z-score),Glc(a1-4)Glc,-0.043
same,glycan array binding signal (z-score),[8],-0.815
same,glycan array binding signal (z-score),Glc(a1-6)Glc(a1-6)Glc,-0.45
same,glycan array binding signal (z-score),[9],0.028
same,glycan array binding signal (z-score),Glc(b1-4)Glc,-1.23
same,glycan array binding signal (z-score),Glc(b1-6)Glc,1.14
same,glycan array binding signal (z-score),GlcA(b1-3)Gal,-0.637
same,glycan array binding signal (z-score),GlcA(b1-3)GlcNAc,-0.782
same,glycan array binding signal (z-score),GlcA(b1-6)Gal,0.382
same,glycan array binding signal (z-score),[10],-0.506
same,glycan array binding signal (z-score),[11],-0.995
same,glycan array binding signal (z-score),[12],-0.748
same,glycan array binding signal (z-score),[13],-1.29
same,glycan array binding signal (z-score),[14],-0.687
same,glycan array binding signal (z-score),[15],-0.929
same,glycan array binding signal (z-score),[16],-0.676
same,glycan array binding signal (z-score),[17],-0.834
same,glycan array binding signal (z-score),[18],0.801
same,glycan array binding signal (z-score),[19],1.77
same,glycan array binding signal (z-score),[20],0.967

# No new results follow: entries from further up.
binder,measurement,setting,value
B1,glycan array binding signal (z-score),[8],-0.815
same,glycan array binding signal (z-score),Glc(a1-6)Glc(a1-6)Glc,-0.45
same,glycan array binding signal (z-score),[9],0.028
